Whole data set: some 33,000 sequences, median “E-score (-0.5 to 0.5)” near -0.0014, cut for the highest 2% near 0.25. This is one part of the list.
These sequences were tested against T1, Cad1 (UniProt P24813) (assay: PBM E-score (8-mer binding enrichment) (E-score (-0.5 to 0.5)); higher = stronger / more preferred TF binding). Settings: protein concentration: 100 nM; construct: GST-full length.
T1 sequence: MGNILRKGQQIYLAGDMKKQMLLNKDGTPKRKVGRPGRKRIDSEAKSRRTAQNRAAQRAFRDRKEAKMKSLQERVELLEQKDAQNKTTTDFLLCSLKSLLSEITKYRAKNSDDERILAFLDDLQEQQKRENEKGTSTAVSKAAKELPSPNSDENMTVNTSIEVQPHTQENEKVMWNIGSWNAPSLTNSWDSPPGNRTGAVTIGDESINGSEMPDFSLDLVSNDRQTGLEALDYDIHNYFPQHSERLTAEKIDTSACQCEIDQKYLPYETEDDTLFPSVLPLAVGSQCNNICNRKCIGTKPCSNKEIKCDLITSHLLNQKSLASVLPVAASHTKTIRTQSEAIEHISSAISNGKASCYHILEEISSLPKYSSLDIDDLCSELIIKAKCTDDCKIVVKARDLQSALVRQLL
Procedure: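 Universal 'all 10-mer' protein binding microarrays (Agilent AMADID 015681) probed with GST-tagged S. cerevisiae TFs (full-length or DBD) made by in vitro transcription/translation (PURExpress), about 100-200 nM. Bound TF was detected with fluorescent anti-GST. Each ungapped 8-mer (which stands for itself and its reverse complement) is scored by the PBM enrichment score (E-score), a modified Wilcoxon-Mann-Whitney statistic from -0.5 to +0.5, computed with the Universal PBM Analysis Suite. Scale: above 0.35 generally sequence-specific binding.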

Row | Sequence | PBM E-score
1 | TCAGCTAA | 0.0322
2 | CTAATCTC | 0.155
3 | CACGAGAG | -0.253
4 | AATGGGAT | -0.161
5 | GATACATA | 0.181
6 | CGCATGTC | 0.0303
7 | CCTTCCCC | -0.168
8 | CGTAACCA | 0.0582
9 | CGGAACCG | 0.0852
10 | AAACGTTA | 0.125
11 | CCAAGGGC | -0.25
12 | ACACCAGA | 0.0117
13 | AGTCCTGA | -0.0327
14 | GCTCTATA | -0.205
15 | CGATCTCC | -0.0343
16 | TTTAGAAA | -0.0357
17 | CGGTTTAC | -0.0741
18 | CTGACTGA | 0.0583
19 | AATGGACT | 0.0697
20 | AATTATAT | 0.29
21 | AAAGTGGG | 0.0573
22 | CAGCTAGC | 0.00595

Individual results from the list.
PBM E-score, CGCATGTC reads 0.0303
PBM E-score, AATGGGAT reads -0.161
PBM E-score, CACGAGAG reads -0.253
PBM E-score, AGTCCTGA reads -0.0327
PBM E-score, AAACGTTA reads 0.125
PBM E-score, CGGTTTAC reads -0.0741

(listing goes on)

Row | Sequence | PBM E-score
23 | AGAACAAA | 0.247
24 | CGCGCGAG | 0.302
25 | AATAAACA | 0.247
26 | AGGTGGGA | -0.26
27 | GGCATATA | 0.196
28 | ACCGCTGA | 0.0668
29 | AATCGGTG | -0.0566
30 | AATAGCAG | -0.159
31 | AGGACACC | 0.00026
32 | ATTCTATC | 0.165
33 | CTAGGGTA | -0.178
34 | ACCTCGAC | 0.0528
35 | GTTCCAAA | 0.0114
36 | GATCATGC | -0.207
37 | CTTCAGCA | 0.0699
38 | GTCTTGAA | 0.0681
39 | AAGACTAG | -0.308
40 | AAGCCCGT | -0.204
41 | GCCGACAA | 0.0987
42 | ATCTTTGA | -0.00269
43 | GCACAGCC | -0.0327
44 | ACCCGATG | 0.103

Row | Sequence | PBM E-score
45 | TAAAAACA | 0.213
46 | TGGGTAAA | -0.207
47 | CCAAACGC | -0.00589
48 | GAGAAATC | 0.107
49 | ACGTCTCC | -0.151
50 | GACTCCGA | 0.0347
51 | AATGGGAG | -0.0358
52 | CGGCGACA | -0.00392
53 | ACGTTGTG | 0.0202
54 | AAGCACGA | -0.0452
55 | CACGCCAC | -0.0782
56 | CAGAGGTC | -0.0835
57 | CTGATTCC | -0.149
58 | GAGGGCGA | -0.317
59 | AATAGTTG | 0.192
60 | GCATTTAC | -0.0215
61 | CCCGATCC | -0.297
62 | CGTCACGC | 0.0214
63 | AAAACAAA | 0.091
64 | GCTGGAAC | -0.148
65 | GCACGTGC | 0.32
66 | ACACCAAA | 0.254

Row | Sequence | PBM E-score
67 | AGGTAACC | -0.00576
68 | CGGATTCC | -0.015
69 | ACAGCGCG | 0.114
70 | ATCTGTGC | 0.0878
71 | CGAGGAGA | -0.265
72 | AAGTCAGT | -0.00706
73 | CGCGCCTC | 0.0878
74 | AGTAATGA | 0.127
75 | GCCCGACC | -0.0915
76 | AGTAGATA | 0.282
77 | AAGGCAAG | -0.242
78 | AGGAAGTC | -0.225
79 | AGTTGCCC | 0.096
80 | ACATTGAT | 0.161
81 | AGCCCACC | -0.131
82 | GGGAAAAA | 0.181
83 | ACGATAGT | 0.161
84 | CTGGGGGC | -0.377
85 | ATGAGGCG | -0.164
86 | ATCGGTTG | 0.132

Reference: the supplement of paper PMC3334620
